# Test results as given in paper doi:10.1101/2025.09.06.674659.
# The chains behind the UniProt entries cited, without tags or fusion partners. Where a name states a change or a piece, a line headed by the entry shows the natural chain unless it says otherwise.
# UniProt Q9NP72: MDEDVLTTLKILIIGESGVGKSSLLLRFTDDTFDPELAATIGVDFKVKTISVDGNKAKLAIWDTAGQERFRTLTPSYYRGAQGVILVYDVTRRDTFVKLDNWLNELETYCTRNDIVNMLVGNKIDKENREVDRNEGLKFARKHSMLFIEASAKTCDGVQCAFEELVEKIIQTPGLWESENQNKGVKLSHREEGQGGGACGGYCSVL
# UniProt P33175: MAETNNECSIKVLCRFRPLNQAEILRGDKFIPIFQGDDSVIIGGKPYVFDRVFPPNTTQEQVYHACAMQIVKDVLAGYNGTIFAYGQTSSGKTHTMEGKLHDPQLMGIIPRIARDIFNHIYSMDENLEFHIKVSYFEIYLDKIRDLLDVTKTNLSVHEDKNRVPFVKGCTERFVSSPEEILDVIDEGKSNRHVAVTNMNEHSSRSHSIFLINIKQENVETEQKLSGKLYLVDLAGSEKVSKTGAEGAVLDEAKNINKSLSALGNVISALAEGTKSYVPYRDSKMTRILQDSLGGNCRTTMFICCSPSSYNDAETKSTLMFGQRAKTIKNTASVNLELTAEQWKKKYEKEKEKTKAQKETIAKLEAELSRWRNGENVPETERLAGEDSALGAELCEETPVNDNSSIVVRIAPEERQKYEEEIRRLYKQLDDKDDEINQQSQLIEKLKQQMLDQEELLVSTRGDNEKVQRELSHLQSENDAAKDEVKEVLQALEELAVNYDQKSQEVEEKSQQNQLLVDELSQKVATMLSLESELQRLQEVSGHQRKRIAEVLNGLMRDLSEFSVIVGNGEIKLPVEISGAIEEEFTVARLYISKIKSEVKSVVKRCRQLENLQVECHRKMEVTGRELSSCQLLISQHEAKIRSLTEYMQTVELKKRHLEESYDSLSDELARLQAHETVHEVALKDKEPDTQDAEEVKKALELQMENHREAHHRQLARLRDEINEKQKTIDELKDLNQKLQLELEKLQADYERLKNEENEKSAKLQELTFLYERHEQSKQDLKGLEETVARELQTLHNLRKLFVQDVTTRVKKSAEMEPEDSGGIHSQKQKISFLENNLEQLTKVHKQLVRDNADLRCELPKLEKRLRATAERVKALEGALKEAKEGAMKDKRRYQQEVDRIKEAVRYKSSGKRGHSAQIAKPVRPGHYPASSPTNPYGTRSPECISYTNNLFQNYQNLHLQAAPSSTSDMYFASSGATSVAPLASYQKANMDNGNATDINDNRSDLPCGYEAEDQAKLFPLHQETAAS
# Results are given in words; binding and its absence hold for the method and conditions named. In cells and extracts the contact can be indirect. Some entries that bind do so weakly or less than the wild type.
# Columns and labels:
# [1] = target: GST-tagged Rab18Q67L (GTP-bound mimetic) (UniProt Q9NP72); assay: pull-down
# [2] = target: GST-tagged Rab18S22N (GDP-bound mimetic) (UniProt Q9NP72); assay: pull-down
binding [1],binding [2],Molecule
binds,,kinesin-1 molecular motor KIF5 (KIF5A) (from UniProt P33175 1-1027)
,binds,"neutral sphingomyelinase 2 (nSMase2) (enzyme, UniProt Q9JJY3 1-655) MVLYTTPFPNSCLSALHAVSWALIFPCYWLVDRLLASFIPTTYEKRQRADDPCCLQLFCTVLFTPVYLALLVAALPFAFLGFIFWSPLQSARRPYSYSRLEDKNPAGGAALLSEWKGTGAGKSFCFATANVCLLPDSLARLNNVFNTQARAKEIGQRIRNGAARPQIKIYIDSPTNTSISAASFSSLVSPQGGDGSRAVPGSIKRTASVEYKGDGGRHPSDEAANGPASGEQADGSLEDSCIVRIGGEEGGRPQEADDPAAGSQARNGAGGTPKGQTPNHNQRDGDSGSLGSPSASRESLVKARAGQDSGGSGEPGANSKLLYKTSVVKKAAARRRRHPDEAFDHEVSAFFPANLDFLCLQEVFDKRAAAKLKEQLHGYFEYILYDVGVYGCHGCCNFKCLNSGLFFASRYPVMDVAYHCYPNGCSFDALASKGALFLKVQVGSTPQDQRIVGYIACTHLHAPPEDSAVRCEQLDLLQDWLADFRKSTSSTSTANPEELVVFDVICGDLNFDNCSSDDKLEQQHSLFTRYKDPCRLGPGEEKPWAIGTLLDTNGLYDEDVCTPDNLQKVLESEEGRREYLAFPTSKSPGAGQKGRKDLLKGNGRRIDYMLHAEEGLCPDWKAEVEEFSFITQLSGLTDHLPVAMRLMVSAGEEEA"
